# Assay results from patent publication US20260021181A1, “CHIMERIC COSTIMULATORY RECEPTORS, CHEMOKINE RECEPTORS, AND THE USE OF SAME IN CELLULAR IMMUNOTHERAPIES” (Iovance Biotherapeutics, Inc., priority 2022, published 2026).
# At least one structure is not confirmed: it was looked up by name or label, or the drawing left a doubt.
# Experiments:
# TIL [1] = assay: Decitabine added during ex vivo TIL expansion: expansion, viability, phenotype, also after repeated stimulation; type: cell-based
# TIL [2] = assay: Cytokine expression of TILs after overnight anti-CD3/CD28 bead stimulation; type: cell-based; conditions: anti-CD3/CD28 beads overnight, bead-to-cell ratio 1:5
# Description: Control or decitabine-treated cryopreserved TILs were thawed and stained for flow cytometry analysis.
# [3] = 10, 30, 100 nM, end of 22-day expansion
# [4] = stimulated every 5 days with TransAct
smiles,measurement,setting,value
Nc1ncn([C@H]2C[C@H](O)[C@@H](CO)O2)c(=O)n1 [decitabine],"frequency of co-stimulatory receptors on CD8+ TILs (CD25, ICOS, CD28, IL-7R)",TIL [1],increase
same,"inhibitory receptor expression on CD8+ TILs (PD-1, TIGIT)",TIL [1],decreasing
same,TIL expansion,TIL [1]; [3],decreased
same,TIL viability,TIL [1]; [3],maintained
same,expression of memory-associated transcription factors,TIL [1]; CD8+ TILs,increased
same,CD4+/CD8+ T-cell ratio,TIL [1]; after expansion,increasing
same,IL-7R expression after repeated stimulation,TIL [1]; [4],increased
same,levels of TOX after repeated stimulation,TIL [1]; [4],lower levels
same,inhibitory receptor expression after repeated stimulation,"TIL [1]; stimulated every 5 days with TransAct, one day after third stimulation",reduced
same,frequency of TCM-like cells in both CD8+ and CD4+ T cells,TIL [1]; treatment during the REP stage,increased
same,frequency of TNF-α and granzyme B expressing CD8+ TILs following stimulation,TIL [2],increased
